The supplement of paper PMC12889115
Some of the results follow. These are raw signals, not scaled to a control.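 First-pass screen: polymyxin B was added at a level that permeabilizes the Salmonella outer membrane while sparing the inner membrane. DMSO wells, with and without polymyxin B, defined maximum growth. Because plates differed from one another, each plate's data were ranked separately and the compounds with the lowest OD600 were carried forward as hits.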

Tested on: Salmonella enterica serovar Typhimurium SL1344
Test: bacterial growth OD600 after 18 h with compound and polymyxin B; higher = more bacterial growth (less inhibition)
Conditions: 50 µM, Mueller-Hinton broth

| Compound | bacterial growth OD600 (polymyxin B 0.75 µg/mL) | bacterial growth OD600 (polymyxin B 1 µg/mL) |
| --- | --- | --- |
| OC(Cc1ccccc1)c1ccc2c(c1)CN(Cc1cccs1)CCO2 (centres undefined) | 0.683 | – |
| COc1ccc(F)c(CC2(CCC(=O)N(C)Cc3ccc(C)cc3)CCC(=O)N2)c1 (centres undefined) | 0.814 | – |
| COCCN1CC(C(=O)NCCc2nc(C)c3c(n2)CCC3)CCC1=O (centres undefined) | – | 0.905 |
| COc1ccc(CC(=O)NCC2CCCN(C(=O)c3cc(CC(C)C)n[nH]3)C2)cc1 (centres undefined) | – | 0.884 |
| O=C1NCCN(C/C=C/c2ccccc2)C1CC(=O)N1CCCCO1 (centres undefined) | – | 0.705 |
| O=C(/C=C/c1ccccc1Cl)NCC1CCC2(CCN(Cc3ccccc3F)CC2)O1 (centres undefined) | 0.671 | – |
| COc1cc2nc(-c3cc4c(c(OC)c3)OCCN(C(=O)C3CCCCC3)C4)cc(C)c2cc1OC | 0.926 | – |
| COc1ccc(F)c(CC2(CCC(=O)N3CCOc4ccc(Cl)cc4C3)CCC(=O)N2)c1 (centres undefined) | 0.836 | – |
| CCOC(=O)N1CCC(NC2CCN(c3ccc(NC(=O)Cc4ccc(OC)cc4)cc3)CC2)CC1 | 0.83 | – |
| COc1ccc(C2c3[nH]c4ccccc4c3CCN2Cc2cnn(C)c2)c(F)c1 (centres undefined) | – | 0.773 |
| COCc1ccc(CN2CCN(c3nc(-c4ccccc4)nc4c3CCC4)CC2)o1 | – | 0.763 |
| CCOC(=O)C1(Cc2cccc(OC)c2)CCCN(C2CSCCSC2)C1 (centres undefined) | – | 0.822 |
| CCN1CCN(C(=O)c2ccc(N3CCC(NCc4cccc(OC(F)(F)F)c4)CC3)cc2)CC1 | 0.992 | – |
| CCCC1(C2CCN(C/C=C/c3ccco3)CC2)NC(=O)N(CCC2CCCN2C)C1=O (centres undefined) | 0.763 | – |
| CCN1CCN(C2(C(=O)NCCCn3nc(C)cc3C)Cc3ccccc3C2)CC1 | 0.826 | – |
| CCOc1ccc(CN2CCN(Cc3cnc(C)s3)CC2CCO)cc1 (centres undefined) | – | 0.905 |
| CCn1ccnc1CNC(=O)CC(c1ccccc1)c1ccc(Cl)cc1 (centres undefined) | – | 0.545 |
| CC(=O)c1cc(C(=O)N2CCCC(CCc3ccccc3C)C2)[nH]n1 (centres undefined) | – | 0.024 |
| CC(C)OCCCNc1nc(CN2CCCCC2c2nccs2)nc2ccc(Cl)cc12 (centres undefined) | 0.676 | – |
| CCN1CCC(C(=O)N(CC)CC2CCCN(CCc3cccc(F)c3)C2)CC1 (centres undefined) | – | 0.95 |
| Fc1ccccc1-c1cnnc(NCC2(N3CCOCC3)CCCCCC2)n1 | – | 1.02 |
| CN(Cc1ccccc1)c1ncccc1CNC(=O)Nc1ccccc1F | 0.133 | – |
| CC(=O)c1cc(CN2CCC(CCC(=O)Nc3ccccc3Cl)CC2)cs1 | – | 0.735 |
| COCCC(=O)N1CCCC(CCc2cccc(OC)c2)C1 (centres undefined) | 0.8 | – |
| O=C(NCc1ccccn1)C1CCN(C2CCN(C3CCCCCC3)CC2)CC1 | – | 0.769 |
| Cc1ccc(N2CCN(C(=O)c3cn(Cc4ccccc4F)nn3)CC2)cc1 | – | 0.911 |
| CN(CCC1CCCCO1)C(=O)CC1(c2ccccc2Cl)CC(=O)N(C2CCCC2)C1=O (centres undefined) | 0.002 | – |
| c1ccc(CC2CN(Cc3ccc4c(c3)OCCO4)CCO2)cc1 (centres undefined) | 0.786 | – |
| COc1ccc(-c2ccccc2NC(=O)C2CCCN2C(=O)CC(C)(C)C)cc1 (centres undefined) | – | 1.04 |

As entered above.
In bacterial growth OD600 (polymyxin B 0.75 µg/mL), `CCOC(=O)N1CCC(NC2CCN(c3ccc(NC(=O)Cc4ccc(OC)cc4)cc3)CC2)CC1` reads 0.83
In bacterial growth OD600 (polymyxin B 0.75 µg/mL), `CN(CCC1CCCCO1)C(=O)CC1(c2ccccc2Cl)CC(=O)N(C2CCCC2)C1=O` (centres undefined) reads 0.002
